The results in this text go back to US20160237414A1.

These are yes or no findings as the source states them, for the method shown. Some binding calls cover weakened binding; strength is not graded here.

Assay [1] concerns the target T1, Purified luminal domain LIMP-2 (ld-LIMP2) (UniProt Q14108).
T1 sequence (looked up): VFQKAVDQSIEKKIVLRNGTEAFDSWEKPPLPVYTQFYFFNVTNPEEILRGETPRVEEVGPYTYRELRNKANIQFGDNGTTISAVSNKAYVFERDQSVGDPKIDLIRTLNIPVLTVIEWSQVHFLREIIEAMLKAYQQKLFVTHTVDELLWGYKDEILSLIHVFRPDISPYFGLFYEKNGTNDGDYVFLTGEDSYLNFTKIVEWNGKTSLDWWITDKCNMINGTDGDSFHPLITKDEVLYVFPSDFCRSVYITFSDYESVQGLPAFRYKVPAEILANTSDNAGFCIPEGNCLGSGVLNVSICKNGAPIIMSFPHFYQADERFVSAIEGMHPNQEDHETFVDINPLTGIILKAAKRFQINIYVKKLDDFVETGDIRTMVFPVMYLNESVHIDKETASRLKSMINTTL
Kind of assay: fluorescence polarization competition, labeled against unlabeled WT peptide (FIG. 7C). In general terms: Polarisation of emitted light reports the rotation of a fluorescent probe.

In assay [2] the target is T1, Purified luminal domain LIMP-2 (ld-LIMP2). Kind of assay: fluorescence polarization at various ldLIMP-2 concentrations (FIG. 12).
The target is the same in assay [3]. Kind of assay: peptide concentration giving 50% of maximal binding against ldLIMP2 concentration (FIG. 12).
Assay [4] shares this target. The experiment in a line: competitive immunoprecipitation, peptide at 0 to 5x molar excess over GCase (FIG. 8A, 8B).
Assay [5] shares this target. Kind of assay: competitive immunoprecipitation, peptide at 0 to 5x molar excess over GCase, anti-LIMP-2 beads, Western blot (FIG. 8A). For orientation: In western blotting, separated proteins are transferred to a membrane and probed.
Assay [6] shares this target. Kind of assay: fluorescence polarization, ldLIMP2 fixed at 50 nM (FIG. 7A).

On to DSPIIV (fluorescent probe (FITC) covalently linked to the C terminal end) [DSPIIV (SEQ ID NO 15) GCase peptide, FITC labeled], for which the binding result in assay [1], in assay [2] and in assay [3] was “binds” throughout.
As for DSPIIV [DSPIIV (SEQ ID NO 15) GCase peptide, unlabeled], the binding entry in assay [1], in assay [4] and in assay [5] was “binds” in each case.
As for DSPIAV (fluorescent probe (FITC) covalently linked to the C terminal end) [DSPIAV peptide (SEQ ID NO 18) (I403A), FITC labeled], in assay [6], the binding entry was “binds”.
As to DSPAIV (fluorescent probe (FITC) covalently linked to the C terminal end) [DSPAIV peptide (SEQ ID NO 17) (I402A), FITC labeled], the binding result in assay [6] is listed as “binds”.
